Test results from patent publication US10835549B2, “Polyplexes” (Vanderbilt University, priority 2013, dated 2020).
“Also recorded” adds a separate entry of the source. Part of at least one peptide drawing is inferred or uncertain, most often the ends. Some of these results come from one statement about several compounds together. No end group written: not given here.

Experiments:
[1] = system: human saphenous vein (HSV); experiment: HSV organ culture model of intimal hyperplasia (VVG morphometry); conditions: 10 μM, after 14 days of organ culture
[2] = system: F-actin stress fiber formation in HCAVSMCs; experiment: F-actin stress fiber assay in ANG II-stimulated HCAVSMCs; format: cell-based, human; conditions: MK2i formulations
jugular vein grafts = experiment: Rabbit bilateral jugular vein graft interposition model; format: in vivo; conditions: 30 μM, grafts treated 30 minutes ex vivo, 28 days post-op
[3] = system: human saphenous vein (HSV); experiment: HSV ring vasorelaxation ex vivo (muscle bath, phenylephrine contraction / sodium nitroprusside relaxation); conditions: 100 μM, 2 h treatment
erythrocytes = experiment: pH-dependent membrane disruption red blood cell hemolysis assay; format: cell-based, human; conditions: endolysosomal pH range / any pH tested
HCAVSMCs = experiment: Microscopic analysis of intracellular trafficking (LysoTracker colocalization); format: cell-based, human

YARAAARQARAKALARQLGVAA [MK2i]
intimal thickness [1]: 89.5±13.9 nm
F-actin stress fiber formation [2]: did not fully block stress fiber formation
neointimal growth (intimal thickness) (jugular vein grafts): did not alone produce any significant change in neointima formation
relaxation [3]: 15%-20%
pH-dependent membrane disruptive activity (erythrocytes; listed as MK2i peptide): Neither the MK2i peptide alone nor the non-endosomolytic NE-MK2i-NP formulation displayed membrane disruptive activity; also recorded: do not
pH-dependent membrane disruptive activity (erythrocytes; listed as YARA-MK2i peptide): Neither the YARA-MK2i peptide alone or AA polyplexes showed any significant hemolysis
MK2i co-localized with LysoTracker dye (HCAVSMCs): ~90%
size of intracellular compartments containing MK2i (HCAVSMCs; 24 hours after treatment): smaller vesicles representative of endosomes
